Laboratory results: publication doi:10.1101/869123
These are yes or no findings as the source states them, for the method shown. In cells and extracts the contact can be indirect. A result given as binding can be weak or reduced; the word gives no strength.

The chains behind the UniProt entries cited, without tags or fusion partners. Where a name states a change or a piece, a line headed by the entry shows the natural chain unless it says otherwise.
UniProt Q9P021: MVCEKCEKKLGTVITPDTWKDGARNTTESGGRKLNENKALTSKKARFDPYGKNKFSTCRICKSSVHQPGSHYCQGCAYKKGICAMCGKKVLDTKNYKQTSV
UniProt P23258: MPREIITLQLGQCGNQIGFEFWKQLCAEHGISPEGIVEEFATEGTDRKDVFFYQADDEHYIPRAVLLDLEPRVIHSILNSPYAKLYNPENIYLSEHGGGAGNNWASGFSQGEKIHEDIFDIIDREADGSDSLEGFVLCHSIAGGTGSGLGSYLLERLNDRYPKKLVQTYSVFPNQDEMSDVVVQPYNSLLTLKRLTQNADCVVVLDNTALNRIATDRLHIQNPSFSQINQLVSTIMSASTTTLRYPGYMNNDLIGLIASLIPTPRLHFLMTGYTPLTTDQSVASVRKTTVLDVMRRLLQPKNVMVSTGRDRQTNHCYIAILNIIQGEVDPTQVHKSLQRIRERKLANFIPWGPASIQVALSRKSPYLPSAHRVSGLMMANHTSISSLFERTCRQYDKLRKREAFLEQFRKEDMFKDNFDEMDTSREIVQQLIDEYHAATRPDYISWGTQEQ

Biological target: DsRed-CRIPT^WT, co-expressed with GFP-tagged tubulin in interphase HeLa cells (human) (UniProt Q9P021)
Test: co-IP

## GFP-tagged γ-tubulin (from UniProt P23258)
  binding: binds
